Reference: PMC12090600
Results are given in words; binding and its absence hold for the method and conditions named. Binding seen in cells or lysates may run through a third protein. A yes stands for co-enrichment or nearness to the bait. Other partners may have been found.

Target: TgCDPK3-GST (Toxoplasma gondii (ME49 strain))
Assay: affinity purification with mass spectrometry; purified GST-TgCDPK3 incubated with mouse macrophage cell line lysates; SDS-PAGE, silver stain, mass spectrometry; only the target purified

B1: Arginase-1 (endogenous, mouse) (enzyme, UniProt Q61176 1-323)
chain: MSSKPKSLEIIGAPFSKGQPRGGVEKGPAALRKAGLLEKLKETEYDVRDHGDLAFVDVPNDSSFQIVKNPRSVGKANEELAGVVAEVQKNGRVSVVLGGDHSLAVGSISGHARVHPDLCVIWVDAHTDINTPLTTSSGNLHGQPVSFLLKELKGKFPDVPGFSWVTPCISAKDIVYIGLRDVDPGEHYIIKTLGIKYFSMTEVDKLGIGKVMEETFSYLLGRKKRPIHLSFDVDGLDPAFTPATGTPVLGGLSYREGLYITEEIYKTGLLSGLDIMEVNPTLGKTAEEVKSTVNTAVALTLACFGTQREGNHKPGTDYLKPPK
For B1, the binding was “binds”.
